Source: patent US20220074941A1, “HSP90 COMBINATION THERAPY” (Sloan-Kettering Institute for Cancer Research, priority 2011, published 2022)

B1: Mitogen-activated protein kinase 8; JNK1; SAPK1 (protein, UniProt P45983 1-427, looked up)
Mitogen-activated protein …: MSRSKRDNNFYSVEIGDSTFTVLKRYQNLKPIGSGAQGIVCAAYDAILERNVAIKKLSRPFQNQTHAKRAYRELVLMKCVNHKNIIGLLNVFTPQKSLEEFQDVYIVMELMDANLCQVIQMELDHERMSYLLYQMLCGIKHLHSAGIIHRDLKPSNIVVKSDCTLKILDFGLARTAGTSFMMTPYVVTRYYRAPEVILGMGYKENVDLWSVGCIMGEMVCHKILFPGRDYIDQWNKVIEQLGTPCPEFMKKLQPTVRTYVENRPKYAGYSFEKLFPDVLFPADSEHNKLKASQARDLLSKMLVIDASKRISVDEALQHPYINVWYDPSEAEAPPPKIPDKQLDEREHTIEEWKELIYKEVMDLEERTKNGVIRGQPSPLGAAVINGSQHPSSSSSVNDVSSMSTDPTLASDTDSSLEAAAGPLGCCR
B2: Mitogen-activated protein kinase 4; ERK4 (protein, UniProt P31152 1-587, looked up)
Mitogen-activated protein …: MAEKGDCIASVYGYDLGGRFVDFQPLGFGVNGLVLSAVDSRACRKVAVKKIALSDARSMKHALREIKIIRRLDHDNIVKVYEVLGPKGTDLQGELFKFSVAYIVQEYMETDLARLLEQGTLAEEHAKLFMYQLLRGLKYIHSANVLHRDLKPANIFISTEDLVLKIGDFGLARIVDQHYSHKGYLSEGLVTKWYRSPRLLLSPNNYTKAIDMWAAGCILAEMLTGRMLFAGAHELEQMQLILETIPVIREEDKDELLRVMPSFVSSTWEVKRPLRKLLPEVNSEAIDFLEKILTFNPMDRLTAEMGLQHPYMSPYSCPEDEPTSQHPFRIEDEIDDIVLMAANQSQLSNWDTCSSRYPVSLSSDLEWRPDRCQDASEVQRDPRAGSAPLAEDVQVDPRKDSHSSSERFLEQSHSSMERAFEADYGRSCDYKVGSPSYLDKLLWRDNKPHHYSEPKLILDLSHWKQAAGAPPTATGLADTGAREDEPASLFLEIAQWVKSTQGGPEHASPPADDPERRLSASPPGRPAPVDGGASPQFDLDVFISRALKLCTKPEDLPDNKLGDLNGACIPEHPGDLVQTEAFSKERW
B3: Cell division protein kinase 7 (protein, UniProt P50613 2-346, looked up)
Cyclin-dependent kinase 7: ALDVKSRAKRYEKLDFLGEGQFATVYKARDKNTNQIVAIKKIKLGHRSEAKDGINRTALREIKLLQELSHPNIIGLLDAFGHKSNISLVFDFMETDLEVIIKDNSLVLTPSHIKAYMLMTLQGLEYLHQHWILHRDLKPNNLLLDENGVLKLADFGLAKSFGSPNRAYTHQVVTRWYRAPELLFGARMYGVGVDMWAVGCILAELLLRVPFLPGDSDLDQLTRIFETLGTPTEEQWPDMCSLPDYVTFKSFPGIPLHHIFSAAGDDLLDLIQGLFLFNPCARITATQALKMKYFSNRPGPTPGCQLPRPNCPVETLKEQSNPALAIKRKRTEALEQGGLPKKLIF
B4: Serine/threonine-protein phosphatase 2A 55 kDa regulatory subunit B delta isoform (protein, UniProt Q66LE6 1-453, looked up)
Serine/threonine-protein …: MAGAGGGGCPAGGNDFQWCFSQVKGAIDEDVAEADIISTVEFNYSGDLLATGDKGGRVVIFQREQENKSRPHSRGEYNVYSTFQSHEPEFDYLKSLEIEEKINKIRWLPQQNAAHFLLSTNDKTIKLWKISERDKRAEGYNLKDEDGRLRDPFRITALRVPILKPMDLMVEASPRRIFANAHTYHINSISVNSDHETYLSADDLRINLWHLEITDRSFNIVDIKPANMEELTEVITAAEFHPHQCNVFVYSSSKGTIRLCDMRSSALCDRHSKFFEEPEDPSSRSFFSEIISSISDVKFSHSGRYMMTRDYLSVKVWDLNMESRPVETHQVHEYLRSKLCSLYENDCIFDKFECCWNGSDSAIMTGSYNNFFRMFDRDTRRDVTLEASRESSKPRASLKPRKVCTGGKRRKDEISVDSLDFNKKILHTAWHPVDNVIAVAATNNLYIFQDKIN
B5: Autophagy protein 5 (protein, UniProt Q9H1Y0 1-275, looked up)
Autophagy protein 5: MTDDKDVLRDVWFGRIPTCFTLYQDEITEREAEPYYLLLPRVSYLTLVTDKVKKHFQKVMRQEDISEIWFEYEGTPLKWHYPIGLLFDLLASSSALPWNITVHFKSFPEKDLLHCPSKDAIEAHFMSCMKEADALKHKSQVINEMQKKDHKQLWMGLQNDRFDQFWAINRKLMEYPAEENGFRYIPFRIYQTTTERPFIQKLFRPVAADGQLHTLGDLLKEVCPSAIDPEDGEKKNQVMIHGIEPMLETPLQWLSEHLSYPDNFLHISIIPQPTD
B6: Transcriptional repressor p66-beta (protein, UniProt Q8WXI9 1-593, looked up)
Transcriptional repressor …: MDRMTEDALRLNLLKRSLDPADERDDVLAKRLKMEGHEAMERLKMLALLKRKDLANLEVPHELPTKQDGSGVKGYEEKLNGNLRPHGDNRTAGRPGKENINDEPVDMSARRSEPERGRLTPSPDIIVLSDNEASSPRSSSRMEERLKAANLEMFKGKGIEERQQLIKQLRDELRLEEARLVLLKKLRQSQLQKENVVQKTPVVQNAASIVQPSPAHVGQQGLSKLPSRPGAQGVEPQNLRTLQGHSVIRSATNTTLPHMLMSQRVIAPNPAQLQGQRGPPKPGLVRTTTPNMNPAINYQPQSSSSVPCQRTTSSAIYMNLASHIQPGTVNRVSSPLPSPSAMTDAANSQAAAKLALRKQLEKTLLEIPPPKPPAPLLHFLPSAANSEFIYMVGLEEVVQSVIDSQGKSCASLLRVEPFVCAQCRTDFTPHWKQEKNGKILCEQCMTSNQKKALKAEHTNRLKNAFVKALQQEQEIEQRLQQQAALSPTTAPAVSSVSKQETIMRHHTLRQAPQPQSSLQRGIPTSARSMLSNFAQAPQLSVPGGLLGMPGVNIAYLNTGIGGHKGPSLADRQREYLLDMIPPRSISQSISGQK
B7: Serine/threonine-protein kinase SRPK1 (protein, UniProt Q96SB4 1-655, looked up)
SRSF protein kinase 1: MERKVLALQARKKRTKAKKDKAQRKSETQHRGSAPHSESDLPEQEEEILGSDDDEQEDPNDYCKGGYHLVKIGDLFNGRYHVIRKLGWGHFSTVWLSWDIQGKKFVAMKVVKSAEHYTETALDEIRLLKSVRNSDPNDPNREMVVQLLDDFKISGVNGTHICMVFEVLGHHLLKWIIKSNYQGLPLPCVKKIIQQVLQGLDYLHTKCRIIHTDIKPENILLSVNEQYIRRLAAEATEWQRSGAPPPSGSAVSTAPQPKPADKMSKNKKKKLKKKQKRQAELLEKRMQEIEEMEKESGPGQKRPNKQEESESPVERPLKENPPNKMTQEKLEESSTIGQDQTLMERDTEGGAAEINCNGVIEVINYTQNSNNETLRHKEDLHNANDCDVQNLNQESSFLSSQNGDSSTSQETDSCTPITSEVSDTMVCQSSSTVGQSFSEQHISQLQESIRAEIPCEDEQEQEHNGPLDNKGKSTAGNFLVNPLEPKNAEKLKVKIADLGNACWVHKHFTEDIQTRQYRSLEVLIGSGYNTPADIWSTACMAFELATGDYLFEPHSGEEYTRDEDHIALIIELLGKVPRKLIVAGKYSKEFFTKKGDLKHITKLKPWGLFEVLVEKYEWSQEEAAGFTDFLLPMLELIPEKRATAAECLRHPWLNS
B8: Serine/threonine-protein phosphatase 4 regulatory subunit 1 (protein, UniProt Q8TF05 1-950, looked up)
Serine/threonine-protein …: MADLSLLQEDLQEDADGFGVDDYSSESDVIIIPSALDFVSQDEMLTPLGRLDKYAASENIFNRQMVARSLLDTLREVCDDERDCIAVLERISRLADDSEPTVRAELMEQVPHIALFCQENRPSIPYAFSKFLLPIVVRYLADQNNQVRKTSQAALLALLEQELIERFDVETKVCPVLIELTAPDSNDDVKTEAVAIMCKMAPMVGKDITERLILPRFCEMCCDCRMFHVRKVCAANFGDICSVVGQQATEEMLLPRFFQLCSDNVWGVRKACAECFMAVSCATCQEIRRTKLSALFINLISDPSRWVRQAAFQSLGPFISTFANPSSSGQYFKEESKSSEEMSVENKNRTRDQEAPEDVQVRPEDTPSDLSVSNSSVILENTMEDHAAEASGKPLGEISVPLDSSLLCTLSSESHQEAASNENDKKPGNYKSMLRPEVGTTSQDSALLDQELYNSFHFWRTPLPEIDLDIELEQNSGGKPSPEGPEEESEGPVPSSPNITMATRKELEEMIENLEPHIDDPDVKAQVEVLSAALRASSLDAHEETISIEKRSDLQDELDINELPNCKINQEDSVPLISDAVENMDSTLHYIHSDSDLSNNSSFSPDEERRTKVQDVVPQALLDQYLSMTDPSRAQTVDTEIAKHCAYSLPGVALTLGRQNWHCLRETYETLASDMQWKVRRTLAFSIHELAVILGDQLTAADLVPIFNGFLKDLDEVRIGVLKHLHDFLKLLHIDKRREYLYQLQEFLVTDNSRNWRFRAELAEQLILLLELYSPRDVYDYLRPIALNLCADKVSSVRWISYKLVSEMVKKLHAATPPTFGVDLINELVENFGRCPKWSGRQAFVFVCQTVIEDDCLPMDQFAVHLMPHLLTLANDRVPNVRVLLAKTLRQTLLEKDYFLASASCHQEAVEQTIMALQMDRDSDVKYFASIHPASTKISEDAMSTASSTY
B9: 28 kDa heat- and acid-stable phosphoprotein (protein, UniProt Q13442 1-181, looked up)
28 kDa heat- and acid-stable …: MPKGGRKGGHKGRARQYTSPEEIDAQLQAEKQKAREEEEQKEGGDGAAGDPKKEKKSLDSDESEDEEDDYQQKRKGVEGLIDIENPNRVAQTTKKVTQLDLDGPKELSRREREEIEKQKAKERYMKMHLAGKTEQAKADLARLAIIRKQREEAARKKEEERKAKDDATLSGKRMQSLSLNK

test system: Hsp90 complexes in K562 cell extract; test: Nano-LC-MS/MS of PU-beads pull-downs; format: binding; details: PU-beads pull-down; Run1, gel size cut 40-60
Procedure, shortened: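 Proteins were identified by data-dependent nano LC-MS/MS (QTof, ESI) and Mascot searching (p<0.05), then reported as spectral counts and coverage via Scaffold. Inputs were PU-bead versus control-bead pull-downs from lysate pre-cleared with control beads overnight at 4 °C, eluted by boiling in 2% SDS.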

| Molecule | Matched Peptides by Fraction JA06 |
| --- | --- |
| B1 | 13 |
| B2 | 7 |
| B3 | 6 |
| B4 | 13 |

same assay, conditions: PU-beads pull-down; Run1, gel size cut 60-80

| Molecule | Matched Peptides by Fraction JA05 |
| --- | --- |
| B5 | 9 |
| B6 | 13 |

same assay, conditions: PU-beads pull-down; Run1, gel size cut 110-150

| Molecule | Matched Peptides by Fraction JA03 |
| --- | --- |
| B7 | 6 |
| B8 | 13 |

same assay, conditions: PU-beads pull-down; Run1, gel size cut <40

| Molecule | Matched Peptides by Fraction JA07 |
| --- | --- |
| B9 | 2 |

same assay, conditions: PU-beads pull-down; Run2, gel size cut 40-60

| Molecule | Matched Peptides by Fraction JA13 |
| --- | --- |
| B1 | 6 |
| B2 | 6 |
| B3 | 9 |
| B4 | 10 |

same assay, conditions: PU-beads pull-down; Run2, gel size cut 110-150

| Molecule | Matched Peptides by Fraction JA10 |
| --- | --- |
| B7 | 10 |
| B8 | 15 |

same assay, conditions: PU-beads pull-down; maximum over fractions JA01-JA14

| Molecule | MAXIMUM matched peptides |
| --- | --- |
| B1 | 13 |
| B7 | 10 |
| B5 | 9 |
| B2 | 7 |
| B3 | 9 |
| B8 | 15 |
| B4 | 13 |
| B6 | 13 |
| B9 | 2 |

same assay, conditions: protein isolated in PU-beads pull-downs, Waters Xevo QTof MS

| Molecule | Total fmol [fmol] |
| --- | --- |
| B1 | 6.6247 |
| B7 | 7.2125 |
| B5 | 2.0138 |
| B2 | 1.9160 |
| B3 | 3.8042 |
| B8 | 9.6747 |
| B4 | 5.9742 |
| B6 | 1.5826 |
| B9 | 3.7688 |
